Measured data: PubChem BioAssay AID686938 (Drosophila RNAi Screening Center, 2013)
Test: 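Looking for CRAC channel components and the factors controlling them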 (primary screen). Cells: Drosophila S2R+ cells. Knock-down reagent: long dsRNA against Drosophila genes, about 0.25 µg dsRNA per well, roughly 10,000 cells. Timing: 5 days of knock-down before the calcium assay. Challenge: thapsigargin (SERCA pump blocker) to empty calcium stores; entry signal taken 4 min after adding it. Detection: 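Duplicate raw fluo-4 intensities per well from a plate reader, at rest and four minutes after thapsigargin emptied calcium stores; entry-to-rest ratio filled for only some wells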. Direction: calcium entry signal: higher = stronger calcium signal after store depletion; resting calcium signal: higher = higher resting calcium signal. Call rule: 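Hit if the duplicate-averaged plate z-score for entry over resting signal is under −3; wells with weak total dye signal (Fmax z < −2) or more than 5 off-targets removed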. Calls: active = strongly reduced calcium entry; inactive = no strong reduction.
The screen tested about 23,000 reagents; below is a random part of those that have a named target and a result. Over the whole deposit, 75 (0.33%) were called active. 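Raw plate signals without normalisation; calls rest on plate z-scores that were not deposited; ratio present for only 364 wells.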 The numbers tell different reagents against one gene apart. A plus sign joins genes that one reagent is predicted to hit. Not given: the dose of the treatment.

| target | reagent | calcium entry signal, replicate 1 (fluorescence units) | calcium entry signal, replicate 2 (fluorescence units) | resting calcium signal, replicate 1 (fluorescence units) | resting calcium signal, replicate 2 (fluorescence units) | Call |
| --- | --- | --- | --- | --- | --- | --- |
| sba | 1 | 3.32e7 | 3.38e7 | 1.68e7 | 1.87e7 | inactive |
| sba | 2 | 4.60e7 | 5.97e7 | 2.20e7 | 2.79e7 | inactive |
| Diedel3 | 1 | 5.61e7 | 4.58e7 | 2.70e7 | 1.86e7 | inactive |
| pygo | 1 | 2.36e7 | 2.20e7 | 1.41e7 | 1.34e7 | inactive |
| SCCRO3 | 1 | 2.39e7 | 3.02e7 | 1.28e7 | 1.36e7 | inactive |
| Ir48c | 1 | 3.21e7 | 3.94e7 | 2.02e7 | 2.06e7 | inactive |
| gammaTub23C | 1 | 3.12e7 | – | 1.71e7 | – | inactive |
| Isha | 1 | 3.93e7 | – | 2.12e7 | – | inactive |
| MagR | 1 | 3.40e7 | 3.43e7 | 1.68e7 | 1.44e7 | inactive |
| CG7789 | 1 | 3.11e7 | 3.58e7 | 1.44e7 | 1.71e7 | inactive |
| CG6928 | 1 | 4.34e7 | 4.43e7 | 3.16e7 | 1.81e7 | inactive |
| Atg7 | 1 | 3.09e7 | 3.34e7 | 1.46e7 | 1.77e7 | inactive |
| Atg7 | 2 | 5.44e7 | 5.94e7 | 2.48e7 | 2.75e7 | inactive |
| CG14227 | 1 | 3.98e7 | 2.68e7 | 1.99e7 | 1.38e7 | inactive |
| Usp39 | 1 | 3.39e7 | 4.00e7 | 1.51e7 | 1.52e7 | inactive |
| POSH | 1 | 4.66e7 | 5.63e7 | 2.16e7 | 2.55e7 | inactive |
| Cyt-b5 | 1 | 2.91e7 | 2.43e7 | 1.25e7 | 1.22e7 | inactive |
| lncRNA:CR43451 | 1 | 4.90e7 | 2.95e7 | 2.44e7 | 1.58e7 | inactive |
| Obp83b | 1 | 4.20e7 | 2.81e7 | 2.03e7 | 1.40e7 | inactive |
| 140up | 1 | 2.98e7 | 3.50e7 | 1.27e7 | 1.62e7 | inactive |
| icln | 1 | 4.74e7 | 7.68e7 | 2.08e7 | 3.32e7 | inactive |
| Orp8 | 1 | 3.01e7 | 5.80e7 | 4.24e7 | 2.72e7 | inactive |
| Orp8 | 2 | 3.84e7 | 3.95e7 | 1.92e7 | 1.77e7 | inactive |
| CG32117 | 1 | 4.10e7 | 3.82e7 | 2.45e7 | 1.83e7 | inactive |
| CG13793 | 1 | 3.87e7 | 4.43e7 | 1.52e7 | 1.91e7 | inactive |
| Pgk | 1 | 4.29e7 | 4.66e7 | 2.03e7 | 2.09e7 | inactive |
| Pgk | 2 | 3.49e7 | 3.41e7 | 2.22e7 | 1.63e7 | inactive |
| CG43077 | 1 | 3.02e7 | 3.45e7 | 1.54e7 | 1.58e7 | inactive |
| CG6931 | 1 | 4.55e7 | 5.32e7 | 2.76e7 | 3.38e7 | inactive |
| CG11168 | 1 | 4.95e7 | 4.23e7 | 2.25e7 | 1.88e7 | inactive |
| CG5282 | 1 | 4.52e7 | 4.81e7 | 2.07e7 | 3.33e7 | inactive |
| CG7011 | 1 | 5.73e7 | 3.96e7 | 2.46e7 | 2.10e7 | inactive |
| CG2955 | 1 | 4.93e7 | – | 3.25e7 | – | inactive |
| CG11404 | 1 | 3.10e7 | 4.69e7 | 1.64e7 | 2.10e7 | inactive |
| Gr23a | 1 | 3.75e7 | 3.68e7 | 1.74e7 | 1.64e7 | inactive |
| eIF3c | 1 | 2.01e7 | 1.42e7 | 1.29e7 | 8.97e6 | inactive |
| Obp19c | 1 | 5.08e7 | 4.13e7 | 2.48e7 | 1.67e7 | inactive |
| CG33127 | 1 | 3.01e7 | 3.13e7 | 1.60e7 | 1.36e7 | inactive |
| CG42560 + CG42559 | 1 | 3.02e7 | 6.95e7 | 1.47e7 | 3.25e7 | inactive |
| sd | 1 | 3.30e7 | 3.03e7 | 1.63e7 | 1.27e7 | inactive |
| sd | 2 | 4.22e7 | 3.47e7 | 2.30e7 | 1.48e7 | inactive |

Records above whose gene name begins with I or i (3):
| target | reagent | calcium entry signal, replicate 1 (fluorescence units) | calcium entry signal, replicate 2 (fluorescence units) | resting calcium signal, replicate 1 (fluorescence units) | resting calcium signal, replicate 2 (fluorescence units) | Call |
| --- | --- | --- | --- | --- | --- | --- |
| Ir48c | 1 | 3.21e7 | 3.94e7 | 2.02e7 | 2.06e7 | inactive |
| Isha | 1 | 3.93e7 | – | 2.12e7 | – | inactive |
| icln | 1 | 4.74e7 | 7.68e7 | 2.08e7 | 3.32e7 | inactive |
